Like-named read-outs stand apart in the source and are kept apart here. No constants are given. Whether binding was seen depends on the method and setting. Binding can be weak; no strength is given. For some of these results: Tags and fused reporters may be left off the sequences shown. Blank lines part the entries; values can stand above or below the molecule they belong to.
How the values were obtained:
Assay in all cases: partitioning into phase-separated FG-domain droplets
[1] = target: Nup116 FG domain (S. cerevisiae) (UniProt Q02630)
[2] = target: Nup98 FG domain (Homo sapiens) (UniProt P52948)
[3] = target: Nup116 FG domain (S. cerevisiae) (UniProt Q02630); remark: listed apart in the source

The chains behind the UniProt entries cited, without tags or fusion partners. Where a name states a change or a piece, a line headed by the entry shows the natural chain unless it says otherwise.
UniProt Q02630: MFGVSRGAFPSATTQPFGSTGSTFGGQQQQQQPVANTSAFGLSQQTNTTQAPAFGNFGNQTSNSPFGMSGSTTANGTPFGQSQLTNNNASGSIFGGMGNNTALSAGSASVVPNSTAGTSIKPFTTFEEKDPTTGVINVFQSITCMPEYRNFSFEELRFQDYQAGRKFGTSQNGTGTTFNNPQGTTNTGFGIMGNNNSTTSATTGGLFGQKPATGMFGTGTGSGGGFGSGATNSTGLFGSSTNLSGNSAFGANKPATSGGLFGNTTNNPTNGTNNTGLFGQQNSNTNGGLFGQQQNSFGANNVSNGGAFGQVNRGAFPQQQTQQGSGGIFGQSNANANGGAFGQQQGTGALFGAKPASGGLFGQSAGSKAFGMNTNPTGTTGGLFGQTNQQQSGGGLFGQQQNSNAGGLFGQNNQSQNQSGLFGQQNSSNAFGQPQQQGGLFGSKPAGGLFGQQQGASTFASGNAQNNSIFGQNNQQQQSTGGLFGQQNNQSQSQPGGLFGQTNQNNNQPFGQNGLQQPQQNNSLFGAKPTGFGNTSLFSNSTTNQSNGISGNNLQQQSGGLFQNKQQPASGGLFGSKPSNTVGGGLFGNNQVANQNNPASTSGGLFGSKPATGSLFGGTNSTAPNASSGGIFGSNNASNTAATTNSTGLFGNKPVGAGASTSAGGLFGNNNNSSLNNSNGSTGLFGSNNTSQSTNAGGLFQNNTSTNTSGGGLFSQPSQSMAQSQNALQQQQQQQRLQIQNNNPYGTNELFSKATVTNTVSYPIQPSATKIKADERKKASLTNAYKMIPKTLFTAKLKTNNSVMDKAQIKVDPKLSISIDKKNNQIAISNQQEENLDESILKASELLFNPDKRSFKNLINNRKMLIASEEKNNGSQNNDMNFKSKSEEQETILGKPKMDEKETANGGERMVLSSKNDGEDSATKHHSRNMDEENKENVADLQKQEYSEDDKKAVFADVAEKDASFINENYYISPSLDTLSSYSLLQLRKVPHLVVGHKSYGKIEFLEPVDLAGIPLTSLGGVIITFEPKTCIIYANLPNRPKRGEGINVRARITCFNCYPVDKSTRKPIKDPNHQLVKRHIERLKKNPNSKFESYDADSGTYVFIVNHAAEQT
UniProt P52948: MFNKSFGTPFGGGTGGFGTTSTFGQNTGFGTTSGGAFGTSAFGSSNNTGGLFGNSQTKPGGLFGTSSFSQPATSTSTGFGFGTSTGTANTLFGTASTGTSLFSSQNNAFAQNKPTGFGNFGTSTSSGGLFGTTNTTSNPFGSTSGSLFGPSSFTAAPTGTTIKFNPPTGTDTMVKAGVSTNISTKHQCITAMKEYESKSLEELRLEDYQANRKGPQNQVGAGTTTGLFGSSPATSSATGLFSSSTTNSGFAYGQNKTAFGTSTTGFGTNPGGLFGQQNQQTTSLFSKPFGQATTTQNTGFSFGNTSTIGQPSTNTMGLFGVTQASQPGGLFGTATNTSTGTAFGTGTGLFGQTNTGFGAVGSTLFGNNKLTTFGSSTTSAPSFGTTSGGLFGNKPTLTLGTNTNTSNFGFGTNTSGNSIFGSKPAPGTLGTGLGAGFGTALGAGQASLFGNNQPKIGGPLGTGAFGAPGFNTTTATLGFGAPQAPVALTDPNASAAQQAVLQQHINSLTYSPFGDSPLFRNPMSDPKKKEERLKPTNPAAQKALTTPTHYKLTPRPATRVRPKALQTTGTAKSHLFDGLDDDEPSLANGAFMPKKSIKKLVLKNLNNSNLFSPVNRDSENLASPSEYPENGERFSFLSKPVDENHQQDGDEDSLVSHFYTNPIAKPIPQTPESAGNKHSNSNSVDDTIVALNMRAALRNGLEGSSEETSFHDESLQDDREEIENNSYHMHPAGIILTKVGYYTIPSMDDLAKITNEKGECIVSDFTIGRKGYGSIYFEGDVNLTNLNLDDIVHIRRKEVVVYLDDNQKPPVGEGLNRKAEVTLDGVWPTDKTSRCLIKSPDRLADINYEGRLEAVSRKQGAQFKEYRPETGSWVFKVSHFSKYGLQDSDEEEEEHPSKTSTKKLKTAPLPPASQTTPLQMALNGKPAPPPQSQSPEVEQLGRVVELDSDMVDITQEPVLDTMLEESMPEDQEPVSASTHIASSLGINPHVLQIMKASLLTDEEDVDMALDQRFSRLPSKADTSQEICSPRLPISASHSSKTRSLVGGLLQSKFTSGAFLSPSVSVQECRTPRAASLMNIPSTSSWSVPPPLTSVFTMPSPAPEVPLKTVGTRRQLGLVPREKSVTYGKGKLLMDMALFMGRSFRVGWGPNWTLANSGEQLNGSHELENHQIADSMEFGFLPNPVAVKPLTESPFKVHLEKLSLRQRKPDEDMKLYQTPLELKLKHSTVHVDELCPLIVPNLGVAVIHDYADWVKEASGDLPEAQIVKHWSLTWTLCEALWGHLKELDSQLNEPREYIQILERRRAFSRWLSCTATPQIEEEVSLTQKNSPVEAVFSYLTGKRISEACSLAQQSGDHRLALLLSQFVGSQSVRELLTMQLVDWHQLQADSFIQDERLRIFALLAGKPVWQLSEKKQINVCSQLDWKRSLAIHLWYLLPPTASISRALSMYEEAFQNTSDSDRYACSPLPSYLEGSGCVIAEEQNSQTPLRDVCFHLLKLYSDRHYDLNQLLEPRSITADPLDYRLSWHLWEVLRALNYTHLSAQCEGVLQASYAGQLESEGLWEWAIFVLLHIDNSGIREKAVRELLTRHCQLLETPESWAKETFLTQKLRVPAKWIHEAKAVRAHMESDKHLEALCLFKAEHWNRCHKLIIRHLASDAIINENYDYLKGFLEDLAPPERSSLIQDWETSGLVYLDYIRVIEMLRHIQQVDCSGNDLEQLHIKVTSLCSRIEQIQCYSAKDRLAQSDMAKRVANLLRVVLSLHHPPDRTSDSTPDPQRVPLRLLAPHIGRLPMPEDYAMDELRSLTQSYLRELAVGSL
UniProt O75190: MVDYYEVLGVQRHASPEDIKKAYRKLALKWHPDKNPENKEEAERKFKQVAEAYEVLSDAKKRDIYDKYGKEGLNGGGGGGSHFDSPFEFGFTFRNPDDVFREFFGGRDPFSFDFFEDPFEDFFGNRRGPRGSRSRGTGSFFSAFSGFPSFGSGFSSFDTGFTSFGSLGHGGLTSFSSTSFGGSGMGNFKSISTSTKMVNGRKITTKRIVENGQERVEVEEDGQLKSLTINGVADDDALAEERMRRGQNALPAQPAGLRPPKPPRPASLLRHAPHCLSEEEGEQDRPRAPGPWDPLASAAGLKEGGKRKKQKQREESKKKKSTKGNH

binding [1]: binds
Molecule: mCherry-DNAJB6-His10 (from UniProt O75190 1-326)

binding [2]: binds
binding [3]: binds
B1: MLF2-GFP-FLAG (protein, UniProt Q15773 1-248)
chain: MFRFMRDVEPEDPMFLMDPFAIHRQHMSRMLSGGFGYSPFLSITDGNMPGTRPASRRMQQAGAVSPFGMLGMSGGFMDMFGMMNDMIGNMEHMTAGGNCQTFSSSTVISYSNTGDGAPKVYQETSEMRSAPGGIRETRRTVRDSDSGLEQMSIGHHIRDRAHILQRSRNHRTGDQEERQDYINLDESEAAAFDDEWRRETSRFRQQRPLEFRRLESSGAGGRRAEGPPRLAIQGPEDSPSRQSRRYDW

binding [3]: binds
B2: untagged MLF2 (protein, UniProt Q15773 1-248)
chain: B1 chain
